Data taken from publication PMC5175275.
No constants are given. Whether binding was seen depends on the method and setting. For part of these data: In cells and extracts the contact can be indirect. Some binding calls cover weakened binding; strength is not graded here. For part of these data: Sequences can lack the tags named with a protein.

Columns and labels:
[1] = target: T1, full-length Isl1 (bait in pGBKT7) (UniProt P61372); experiment: two-hybrid; retest: single bait and prey plasmids cotransformed into Yeast Gold; clones patched onto DDO/X/A and QDO/X/A medium
T1 sequence: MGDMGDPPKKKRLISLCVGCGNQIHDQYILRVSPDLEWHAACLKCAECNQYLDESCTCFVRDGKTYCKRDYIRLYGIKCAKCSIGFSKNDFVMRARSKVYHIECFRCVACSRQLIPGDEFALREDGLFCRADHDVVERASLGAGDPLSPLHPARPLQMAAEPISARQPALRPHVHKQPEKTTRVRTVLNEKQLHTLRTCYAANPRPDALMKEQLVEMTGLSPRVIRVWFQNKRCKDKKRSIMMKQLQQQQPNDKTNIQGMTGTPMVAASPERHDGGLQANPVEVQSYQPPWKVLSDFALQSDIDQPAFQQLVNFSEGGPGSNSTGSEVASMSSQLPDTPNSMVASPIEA

HA epitope-tagged Isl1 = target: T2, HA epitope-tagged Isl1 (UniProt P61372); experiment: co-IP; 293FT cells transfected with pXJ40-HA-Isl1 and/or pXJ40-MYC-PIASy, harvested after 48 hours; nondenaturing lysis buffer; lysate with anti-HA or anti-MYC agarose beads at 4 °C overnight; blot with anti-MYC or anti-HA
T2 sequence: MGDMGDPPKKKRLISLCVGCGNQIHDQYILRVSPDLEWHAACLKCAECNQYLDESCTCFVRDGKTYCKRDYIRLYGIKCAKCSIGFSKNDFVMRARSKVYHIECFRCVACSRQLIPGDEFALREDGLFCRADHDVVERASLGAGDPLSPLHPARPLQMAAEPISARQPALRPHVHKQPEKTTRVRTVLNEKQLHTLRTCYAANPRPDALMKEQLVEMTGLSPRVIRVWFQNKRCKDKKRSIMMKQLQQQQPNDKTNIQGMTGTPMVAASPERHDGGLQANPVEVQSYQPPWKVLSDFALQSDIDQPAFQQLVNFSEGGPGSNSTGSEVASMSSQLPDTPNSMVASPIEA

[2] = target: T3, MYC epitope-tagged PIASy (mouse) (UniProt Q9JM05); experiment: as above
T3 sequence: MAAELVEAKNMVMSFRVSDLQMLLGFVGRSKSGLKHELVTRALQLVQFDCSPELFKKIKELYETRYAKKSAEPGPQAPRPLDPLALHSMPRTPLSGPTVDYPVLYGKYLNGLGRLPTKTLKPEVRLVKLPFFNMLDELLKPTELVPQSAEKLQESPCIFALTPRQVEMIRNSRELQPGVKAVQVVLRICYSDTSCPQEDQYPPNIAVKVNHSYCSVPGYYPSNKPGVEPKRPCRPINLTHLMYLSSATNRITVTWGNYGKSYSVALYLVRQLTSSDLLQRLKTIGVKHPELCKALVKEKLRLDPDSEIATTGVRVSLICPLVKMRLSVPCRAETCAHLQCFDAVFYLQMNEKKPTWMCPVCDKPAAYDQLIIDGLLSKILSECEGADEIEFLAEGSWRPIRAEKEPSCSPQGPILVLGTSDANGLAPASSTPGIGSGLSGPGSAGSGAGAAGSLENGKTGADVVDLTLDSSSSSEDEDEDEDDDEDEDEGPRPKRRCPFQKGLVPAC

B1: protein inhibitor of activated STAT Y (PIASy), prey in pGADT7 (protein, UniProt Q9JM05 1-507)
chain: MAAELVEAKNMVMSFRVSDLQMLLGFVGRSKSGLKHELVTRALQLVQFDCSPELFKKIKELYETRYAKKSAEPGPQAPRPLDPLALHSMPRTPLSGPTVDYPVLYGKYLNGLGRLPTKTLKPEVRLVKLPFFNMLDELLKPTELVPQSAEKLQESPCIFALTPRQVEMIRNSRELQPGVKAVQVVLRICYSDTSCPQEDQYPPNIAVKVNHSYCSVPGYYPSNKPGVEPKRPCRPINLTHLMYLSSATNRITVTWGNYGKSYSVALYLVRQLTSSDLLQRLKTIGVKHPELCKALVKEKLRLDPDSEIATTGVRVSLICPLVKMRLSVPCRAETCAHLQCFDAVFYLQMNEKKPTWMCPVCDKPAAYDQLIIDGLLSKILSECEGADEIEFLAEGSWRPIRAEKEPSCSPQGPILVLGTSDANGLAPASSTPGIGSGLSGPGSAGSGAGAAGSLENGKTGADVVDLTLDSSSSSEDEDEDEDDDEDEDEGPRPKRRCPFQKGLVPAC
With B1 the binding [1] was “binds”.

B2: MYC epitope-tagged PIASy (protein, UniProt Q9JM05 1-507)
chain: MAAELVEAKNMVMSFRVSDLQMLLGFVGRSKSGLKHELVTRALQLVQFDCSPELFKKIKELYETRYAKKSAEPGPQAPRPLDPLALHSMPRTPLSGPTVDYPVLYGKYLNGLGRLPTKTLKPEVRLVKLPFFNMLDELLKPTELVPQSAEKLQESPCIFALTPRQVEMIRNSRELQPGVKAVQVVLRICYSDTSCPQEDQYPPNIAVKVNHSYCSVPGYYPSNKPGVEPKRPCRPINLTHLMYLSSATNRITVTWGNYGKSYSVALYLVRQLTSSDLLQRLKTIGVKHPELCKALVKEKLRLDPDSEIATTGVRVSLICPLVKMRLSVPCRAETCAHLQCFDAVFYLQMNEKKPTWMCPVCDKPAAYDQLIIDGLLSKILSECEGADEIEFLAEGSWRPIRAEKEPSCSPQGPILVLGTSDANGLAPASSTPGIGSGLSGPGSAGSGAGAAGSLENGKTGADVVDLTLDSSSSSEDEDEDEDDDEDEDEGPRPKRRCPFQKGLVPAC
For B2, the binding (HA epitope-tagged Isl1) was “binds”.

B3: HA epitope-tagged Isl1 (protein, UniProt P61372 1-349)
chain: MGDMGDPPKKKRLISLCVGCGNQIHDQYILRVSPDLEWHAACLKCAECNQYLDESCTCFVRDGKTYCKRDYIRLYGIKCAKCSIGFSKNDFVMRARSKVYHIECFRCVACSRQLIPGDEFALREDGLFCRADHDVVERASLGAGDPLSPLHPARPLQMAAEPISARQPALRPHVHKQPEKTTRVRTVLNEKQLHTLRTCYAANPRPDALMKEQLVEMTGLSPRVIRVWFQNKRCKDKKRSIMMKQLQQQQPNDKTNIQGMTGTPMVAASPERHDGGLQANPVEVQSYQPPWKVLSDFALQSDIDQPAFQQLVNFSEGGPGSNSTGSEVASMSSQLPDTPNSMVASPIEA
In the case of B3, the binding [2] is reported as “binds”.
